Reference: article PMC5980149
No constants are given. Whether binding was seen depends on the method and setting. Binding seen in cells or lysates may run through a third protein. Some binding calls cover weakened binding; strength is not graded here.

Amino acid sequences for entries named in this document (tags omitted).
UniProt P83916: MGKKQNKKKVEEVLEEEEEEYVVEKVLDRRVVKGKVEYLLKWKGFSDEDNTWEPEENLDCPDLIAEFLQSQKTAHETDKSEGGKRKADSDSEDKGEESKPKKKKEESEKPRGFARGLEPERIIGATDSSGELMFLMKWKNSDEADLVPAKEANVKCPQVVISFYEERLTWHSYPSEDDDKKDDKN
UniProt P45973: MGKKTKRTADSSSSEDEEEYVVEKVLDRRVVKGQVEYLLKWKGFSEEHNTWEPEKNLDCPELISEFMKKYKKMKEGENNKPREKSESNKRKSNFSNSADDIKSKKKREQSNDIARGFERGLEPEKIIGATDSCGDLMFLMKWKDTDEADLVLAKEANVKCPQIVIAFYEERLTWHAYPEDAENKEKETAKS
UniProt Q13185: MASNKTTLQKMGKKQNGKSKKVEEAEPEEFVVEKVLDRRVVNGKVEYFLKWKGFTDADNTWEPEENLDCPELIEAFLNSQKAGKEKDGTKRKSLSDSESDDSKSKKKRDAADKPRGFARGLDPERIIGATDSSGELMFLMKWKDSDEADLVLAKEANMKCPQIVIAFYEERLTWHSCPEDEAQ

Key:
[1] = molecular target: heterochromatin protein 1 beta (human (endogenous in hLCSCs from Huh7)) (UniProt P83916); experiment: co-IP; repeat (sequential) co-IP from hLCSC lysates (TLR4 overexpression or knockdown): first an HP1α IP, then an HP1β IP of the HP1α immunoprecipitates, then Western blotting with anti-HP1γ
[2] = molecular target: heterochromatin protein 1 alpha (human (endogenous in hLCSCs from Huh7)) (UniProt P45973); experiment: as above

Substance	binding [1]	binding [2]
heterochromatin protein 1 gamma (from UniProt Q13185 1-183)	binds	–
heterochromatin protein 1 beta (from UniProt P83916 1-185)	–	binds
